Data source: PubChem BioAssay AID1259308 (NCATS, 2017)
Shown is an unselected part of about 59,000 deposited reagents. About 1,510 of all reagents (2.6%) count as active. 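Calls use total luciferase alone and ignore viability, so some active siRNAs may act by altering cell number.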 Unmarked entries are inactive. Reagents against one gene are numbered here. Not all columns of the deposit are shown.

- Aim: 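Candidate targets for better recombinant protein yield in mammalian cells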 (primary screen)
- Cell system: human HEK293 embryonic kidney cells stably expressing firefly luciferase (HEK-CMV-Luc2-Hygro)
- Reagent: single siRNA against human genes, 0.8 pmol siRNA per well
- Timing: 72 h
- Measured: 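Luciferase light (ONE-Glo) measured on one replicate plate set and viability (CellTiter-Glo) on the other, scaled to a negative control siRNA, with robust z-scores and luciferase per cell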
- Reading the numbers: total luciferase, z-score: higher = more reporter protein produced
- Active means: 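Active when the median/MAD z-score for overall luciferase is greater than 3; a gene was taken forward for validation with new siRNAs if at least two of its three siRNAs passed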
- Calls: active = raised luciferase; inactive = no rise

RAD21-AS1 (RAD21 antisense RNA 1) #1 | total luciferase, z-score = 0.69
RAD21-AS1 (RAD21 antisense RNA 1) #2 | total luciferase, z-score = -1.17
RAD21-AS1 (RAD21 antisense RNA 1) #3 | total luciferase, z-score = 0.869
ARHGEF38 (Rho guanine nucleotide exchange factor 38) #1 | total luciferase, z-score = 1.8
ARHGEF38 (Rho guanine nucleotide exchange factor 38) #2 | total luciferase, z-score = -0.399
ARHGEF38 (Rho guanine nucleotide exchange factor 38) #3 | total luciferase, z-score = -0.436
FBXL12 (F-box and leucine rich repeat protein 12) #1 | total luciferase, z-score = 2.6
FBXL12 (F-box and leucine rich repeat protein 12) #2 | total luciferase, z-score = 0.618
FBXL12 (F-box and leucine rich repeat protein 12) #3 | total luciferase, z-score = -0.051
RBM22P1 (RNA binding motif protein 22 pseudogene 1) #1 | total luciferase, z-score = -0.398
RBM22P1 (RNA binding motif protein 22 pseudogene 1) #2 | total luciferase, z-score = -0.418
RBM22P1 (RNA binding motif protein 22 pseudogene 1) #3 | total luciferase, z-score = -0.261
SECISBP2L (SECIS binding protein 2 like) #1 | total luciferase, z-score = 0.603
SECISBP2L (SECIS binding protein 2 like) #2 | total luciferase, z-score = 0.56
SECISBP2L (SECIS binding protein 2 like) #3 | total luciferase, z-score = 0.178
BAAT (bile acid-CoA:amino acid N-acyltransferase) #1 | total luciferase, z-score = -0.408
BAAT (bile acid-CoA:amino acid N-acyltransferase) #2 | total luciferase, z-score = 1.97
BAAT (bile acid-CoA:amino acid N-acyltransferase) #3 | total luciferase, z-score = -0.563
CYP7B1 (cytochrome P450 family 7 subfamily B member 1) #1 | total luciferase, z-score = -0.51
CYP7B1 (cytochrome P450 family 7 subfamily B member 1) #2 | total luciferase, z-score = -0.528
CYP7B1 (cytochrome P450 family 7 subfamily B member 1) #3 | total luciferase, z-score = -0.16

No new results follow: entries from further up.
FBXL12 (F-box and leucine rich repeat protein 12) #1 | total luciferase, z-score = 2.6
FBXL12 (F-box and leucine rich repeat protein 12) #2 | total luciferase, z-score = 0.618
FBXL12 (F-box and leucine rich repeat protein 12) #3 | total luciferase, z-score = -0.051
